Source: PubChem BioAssay AID1347422 (Sanford-Burnham Center for Chemical Genomics, 2020)
The full ranking holds about 1,000 compounds; the median of “thermal shift dTm” is about 0.19, and the highest 2% start at about 1.7. The list shows a part of the results. Calls of active or inactive are those of the source.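 How the source made its calls: active means mean rise in melting temperature of at least 1 degC over same-plate control wells; inactive means below that, where a call was filed.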

Protein sequences, listed by entry. Tags and fused reporters are not part of them. Lines headed by an entry give the natural chain unless they say otherwise; changes in a name come on top.
UniProt O00391: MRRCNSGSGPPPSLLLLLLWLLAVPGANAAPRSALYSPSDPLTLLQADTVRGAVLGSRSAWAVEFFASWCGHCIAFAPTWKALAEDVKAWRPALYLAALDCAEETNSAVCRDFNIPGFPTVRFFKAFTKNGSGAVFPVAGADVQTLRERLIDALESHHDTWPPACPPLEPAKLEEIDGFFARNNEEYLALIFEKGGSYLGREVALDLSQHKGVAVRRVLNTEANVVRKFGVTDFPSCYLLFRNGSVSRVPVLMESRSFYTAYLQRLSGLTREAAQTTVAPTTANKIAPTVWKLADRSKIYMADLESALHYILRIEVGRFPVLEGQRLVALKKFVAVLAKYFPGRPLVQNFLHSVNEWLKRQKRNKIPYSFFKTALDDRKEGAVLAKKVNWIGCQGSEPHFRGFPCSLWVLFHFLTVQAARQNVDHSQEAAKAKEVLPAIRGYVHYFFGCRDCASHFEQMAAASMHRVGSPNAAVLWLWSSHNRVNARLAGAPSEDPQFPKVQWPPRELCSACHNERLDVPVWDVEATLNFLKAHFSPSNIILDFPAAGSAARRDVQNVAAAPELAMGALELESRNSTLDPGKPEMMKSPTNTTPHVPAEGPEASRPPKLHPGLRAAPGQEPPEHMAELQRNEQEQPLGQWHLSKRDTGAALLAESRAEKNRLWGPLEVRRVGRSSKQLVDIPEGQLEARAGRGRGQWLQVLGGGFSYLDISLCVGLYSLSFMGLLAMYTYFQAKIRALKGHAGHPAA

These molecules were tested against Sulfhydryl oxidase 1 (Homo sapiens) (UniProt O00391) (assay: QSOX1 binders by thermal stabilization, confirmation, QSOX1 inhibitor project, biophysical, protein thermal shift, single concentration (AID 1347422;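 further: dTm is compound Tm minus mean Tm of DMSO-only wells on that plate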)). Conditions: recombinant hQSOX1 thermal shift, Sypro Orange, at 25 µM, stronger effect = higher value.
In the case of `CCCCCCN1C(=O)NC(=O)/C(=C\c2ccccc2Cl)C1=O`, the thermal shift dTm is reported as inactive: -0.13 °C.
With `O=C(Nc1ccc(Cl)cc1)Nc1nccs1` the thermal shift dTm was active: 1.39 °C.
Work on `COC(=O)c1cn(CCCOc2ccccc2Cl)c2ccccc12` yielded a thermal shift dTm of 0.44 °C.
For `CCOC(=O)C1=C(NC(=O)c2ccccc2Cl)c2ccccc2CC12CCCCC2`, the thermal shift dTm was 0.17 °C.
